No constants are given. Whether binding was seen depends on the method and setting. Some results given as binding are weak or reduced against the parent protein; the word gives no strength. Tags and fused reporters may be left off the sequences shown.

This assay deals with T1, GFP-HSET (full-length N-terminal hexa-histidine-tagged GFP-HSET) (human) (UniProt Q9BW19).
T1 sequence: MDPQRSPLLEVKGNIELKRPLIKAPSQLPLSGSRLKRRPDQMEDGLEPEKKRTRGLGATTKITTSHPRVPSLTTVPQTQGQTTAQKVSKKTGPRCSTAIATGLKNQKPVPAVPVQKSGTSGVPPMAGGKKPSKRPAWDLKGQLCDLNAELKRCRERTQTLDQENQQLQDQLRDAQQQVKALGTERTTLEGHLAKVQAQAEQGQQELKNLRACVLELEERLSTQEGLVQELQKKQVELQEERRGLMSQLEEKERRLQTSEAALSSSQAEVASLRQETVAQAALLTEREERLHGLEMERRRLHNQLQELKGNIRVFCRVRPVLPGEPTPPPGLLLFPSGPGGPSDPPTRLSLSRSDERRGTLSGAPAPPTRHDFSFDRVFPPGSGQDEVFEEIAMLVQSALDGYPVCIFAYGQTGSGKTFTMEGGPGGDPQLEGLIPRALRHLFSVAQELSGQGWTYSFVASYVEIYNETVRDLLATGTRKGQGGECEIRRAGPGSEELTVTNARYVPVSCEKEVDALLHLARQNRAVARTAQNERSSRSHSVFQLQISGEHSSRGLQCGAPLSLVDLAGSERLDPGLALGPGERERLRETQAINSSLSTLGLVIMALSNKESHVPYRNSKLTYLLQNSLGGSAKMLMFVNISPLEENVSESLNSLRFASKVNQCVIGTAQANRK
Description: pull-down; 4 µg GFP-HSET (or GFP) on 10 µl GFP-trap beads; IFT proteins 0.25 µM in 20 mM Hepes pH 7.2, 150 mM NaCl, 2 mM MgCl2, 1 mM DTT, 2 h at RT; 4 washes; IFT proteins and SNAP seen by their SNAP-surface 647 label; both purified.

B1: SNAP-IFT46 (protein, UniProt Q9NQC8 1-304)
chain: MADNSSDECEEENNKEKKKTSQLTPQRGFSENEDDDDDDDDSSETDSDSDDDDEEHGAPLEGAYDPADYEHLPVSAEIKELFQYISRYTPQLIDLDHKLKPFIPDFIPAVGDIDAFLKVPRPDGKPDNLGLLVLDEPSTKQSDPTVLSLWLTENSKQHNITQHMKVKSLEDAEKNPKAIDTWIESISELHRSKPPATVHYTRPMPDIDTLMQEWSPEFEELLGKVSLPTAEIDCSLAEYIDMICAILDIPVYKSRIQSLHLLFSLYSEFKNSQHFKALAEGKKAFTPSSNSTSQAGDMETLTFS
modifications: SNAP-Surface Alexa Fluor 647 on the SNAP tag
Turning to B1, the binding entry is on record as “binds weakly”.

The values above are taken from PMC13265731, “In vitro reconstitution defines the mechanistic basis of HSET motor activity regulation by IntraFlagellar Transport proteins” (Communications Biology, 2026).
